# Measurements from patent US20150374779A1, “PHARMACOLOGIC TREATMENTS OF MENIÉRE'S DISEASE” (priority 2014, published 2015).
# At least one structure is not confirmed: it was looked up by name or label, or the drawing left a doubt.
# Tested on: wild type HSV-1 (KOS)
# Test: Western blot assay of accumulation of HSV-1 viral proteins (IE, E, L classes) in SH-SY5Y cells and rat fetal cortex neurons
# Type: cell-based
# Details: 40 μM, 8 h post infection, less profound than D-JNKI-1
# Experimental: Cell monolayers were pretreated either with DMSO (DM, vehicle control), or the JNK inhibitors D-JNKI-1 (AM, 10 μM) or SP600125 (SP, 40 μM), then infected in the presence of drug for 60 minutes and finally in the presence of drug until the time of harvest, 8 hours post infection. Western blot for tubulin served as a loading control.
# The ability of JNK inhibitors to affect accumulation of viral proteins representative of the immediate-early (IE), early (E) or late (L) kinetic classes was evaluated by a Western blot assay.
# Unless indicated otherwise, the same materials and methods were applied as for the experiment described under Example 1 and as laid out by Hargett et al., 2005.
# Replicate monolayers of rat fetal cortex neurons or ATRA-differentiated SH-SY5Y cells were pre-treated with DMSO, D-JNKI-1 (10 μM) or […] (40 μM) for 30 minutes, and then infected with wild type HSV-1 (KOS) or ICP27 null mutant d27 at a multiplicity of infection (MOI) of 5, or mock-infected under pre-treatment conditions for 60 minutes. The inoculum was removed and incubation continued under the pretreatment conditions until the time of harvest. Whole cell lysates were prepared at 8 h post infection. Aliquots of lysates were separated on 12% gels by standard polyacrylamide gel electrophoresis (SDS-PAGE) procedures. […]
structure (smiles),measurement,value
"Oc1c2ccccc2c2c3c(cccc13)N=N2 [SP600125, reference compound]",viral protein accumulation,showed a reduction
